How the values were obtained:
[1] = Body weight of experimental animals, study with treadmill exercise; type: in vivo, ICR mice
ICR mice = test: Weight of liver and muscles; type: in vivo; settings: 6 weeks
Protocol: After an acclimatization period of 1 week, healthy animals were selected and divided into 6 groups according to the randomized block design. The animals were divided into (G1) a non-exercise control group, (G2) a non-exercise+7 mg/kg body weight (BW) Example 1 group, (G3) a non-exercise+7 mg/kg BW Example 2 group, (G4) a non-exercise+7 mg/kg BW Example 3 group, (G5) a non-exercise+7 mg/kg BW Example 4 group, (G6) an exercise control group, (G7) an exercise+7 mg/kg BW Example 1 group, (G8) an exercise+7 mg/kg BW Example 2 group, (G9) an exercise+7 mg/kg BW Example 3 group, (G10) an exercise+7 mg/kg BW Example 4 group, and (G11) an exercise+75 mg/kg BW Cr dose group. Each test group consisted of 10 animals.
Before sacrificing, the experimental animal was anesthetized using an anesthetic prepared by dilution of tribromoethanol with tertiary amyl alcohol and blood was taken from the eye socket. The blood was placed in a serum-separating tube (Becton Dickinson) and left at room temperature for 30 minutes, centrifuged at 5,000 rpm for 10 minutes to separate the serum, and kept at −70° C. until analysis. After the blood sampling, the experimental animal was sacrificed and the liver and skeletal muscles [quadriceps femoris muscle (QF), gastrocnemius muscle (GA), soleus muscle (SOL), and extensor digitorum longus muscle (EDL)] were extracted. Their weight was measured after rinsing with cold physiological saline and removing excess water with filter paper. A portion of the soleus muscle (SOL) was fixed with 4% paraformaldehyde (PFA) and then embedded in paraffin for histoimmunological staining. Also, total RNA was isolated from a portion of the soleus muscle and subjected to real-time RT-PCR. Proteins were isolated from a portion of the gastrocnemius muscle (GA) and subjected to western blot. The remaining tissue was kept at −70° C. until analysis.
After the end of the test, the weight of the muscles and liver of the experimental animals was measured.
Since the body weight of the experimental animals was decreased due to exercise and the administration of the test substances, the relative weight of the muscles and liver per 100 g of body weight was calculated and shown in Table 23.

[2] = treadmill exercise, 7 mg/kg BW (Cr 75 mg/kg BW)

Row | Structure (SMILES) | Body weight Week 2 ([1]; non-exercise, 7 mg/kg BW) [g] | Body weight Week 4 ([1]; non-exercise, 7 mg/kg BW) [g] | Body weight Week 6 ([1]; non-exercise, 7 mg/kg BW) [g] | Body weight Week 2 [1, 2] [g] | Body weight Week 4 [1, 2] [g] | Body weight Week 6 [1, 2] [g] | Relative weight of liver (ICR mice; non-exercise, 7 mg/kg BW) [g/100 g body weight] | Weight of liver (ICR mice; non-exercise, 7 mg/kg BW) [g] | Relative weight of liver (ICR mice; [2]) [g/100 g body weight] | Weight of liver (ICR mice; [2]) [g]
1 | CC(C)=CCC[C@](C)(O)C1CC[C@]2(C)C1[C@H](O)CC1[C@@]3(C)C[C@@H](O)C(OC4OC(CO)C(O)C(O)C4OC4OC(CO)C(O)C(O)C4O)C(C)(C)C3CC[C@]12C (stereo partly drawn) [Example 1, Gypenoside L] | 32.7 ± 0.7 | 35.5 ± 1.0 | 37.9 ± 1.2 | 30.5 ± 0.4 | 33.0 ± 0.5 | 36.6 ± 0.7 | 4.92 | 1.87 | 5.07 | 1.83
2 | CN(CC(=O)O)C(=N)N.O [Cr, Creatine monohydrate, reference compound] |  |  |  | 31.2 ± 0.6 | 34.0 ± 0.8 | 38.0 ± 1.0 |  |  | 5.49 | 2.08
